Reference: the supplement of paper PMC10849652
The list shows a part of the results.

By UniProt entry, the sequences of proteins in these tests, tags left out. Where a name states a change or a piece, a line headed by the entry shows the natural chain unless it says otherwise.
UniProt Q96EK9: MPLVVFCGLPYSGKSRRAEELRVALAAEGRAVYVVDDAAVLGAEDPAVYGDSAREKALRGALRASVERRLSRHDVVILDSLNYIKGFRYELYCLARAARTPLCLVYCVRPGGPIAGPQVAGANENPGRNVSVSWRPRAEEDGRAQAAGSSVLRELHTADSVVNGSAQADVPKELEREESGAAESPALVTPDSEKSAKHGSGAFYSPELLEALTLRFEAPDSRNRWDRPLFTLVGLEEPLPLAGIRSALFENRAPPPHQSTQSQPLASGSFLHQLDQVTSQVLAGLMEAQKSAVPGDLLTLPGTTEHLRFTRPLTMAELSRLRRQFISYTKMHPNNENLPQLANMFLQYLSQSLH
UniProt P36776: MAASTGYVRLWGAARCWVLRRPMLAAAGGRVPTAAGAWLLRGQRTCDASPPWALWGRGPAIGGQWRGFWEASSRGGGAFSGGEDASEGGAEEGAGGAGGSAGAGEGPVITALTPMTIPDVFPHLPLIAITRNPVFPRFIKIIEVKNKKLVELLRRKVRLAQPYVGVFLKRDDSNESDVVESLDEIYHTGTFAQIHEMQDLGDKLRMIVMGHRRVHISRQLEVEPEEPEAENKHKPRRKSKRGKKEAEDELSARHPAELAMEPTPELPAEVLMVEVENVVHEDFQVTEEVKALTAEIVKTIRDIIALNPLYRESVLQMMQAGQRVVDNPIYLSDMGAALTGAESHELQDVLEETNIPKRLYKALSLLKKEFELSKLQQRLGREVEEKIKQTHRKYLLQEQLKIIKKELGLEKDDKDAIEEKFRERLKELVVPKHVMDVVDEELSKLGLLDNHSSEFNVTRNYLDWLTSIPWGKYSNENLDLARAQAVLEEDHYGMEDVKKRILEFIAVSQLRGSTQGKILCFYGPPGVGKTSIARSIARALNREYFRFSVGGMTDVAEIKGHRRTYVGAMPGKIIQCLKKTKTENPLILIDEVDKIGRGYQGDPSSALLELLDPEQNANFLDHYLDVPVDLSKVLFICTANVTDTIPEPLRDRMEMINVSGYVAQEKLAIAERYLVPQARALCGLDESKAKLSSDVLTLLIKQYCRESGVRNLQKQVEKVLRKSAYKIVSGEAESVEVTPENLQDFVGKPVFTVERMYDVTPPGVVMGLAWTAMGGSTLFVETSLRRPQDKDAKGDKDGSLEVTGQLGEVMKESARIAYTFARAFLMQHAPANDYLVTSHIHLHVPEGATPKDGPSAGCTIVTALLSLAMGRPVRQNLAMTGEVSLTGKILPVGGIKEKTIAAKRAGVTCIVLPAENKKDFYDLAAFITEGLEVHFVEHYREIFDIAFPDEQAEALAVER
UniProt Q16773: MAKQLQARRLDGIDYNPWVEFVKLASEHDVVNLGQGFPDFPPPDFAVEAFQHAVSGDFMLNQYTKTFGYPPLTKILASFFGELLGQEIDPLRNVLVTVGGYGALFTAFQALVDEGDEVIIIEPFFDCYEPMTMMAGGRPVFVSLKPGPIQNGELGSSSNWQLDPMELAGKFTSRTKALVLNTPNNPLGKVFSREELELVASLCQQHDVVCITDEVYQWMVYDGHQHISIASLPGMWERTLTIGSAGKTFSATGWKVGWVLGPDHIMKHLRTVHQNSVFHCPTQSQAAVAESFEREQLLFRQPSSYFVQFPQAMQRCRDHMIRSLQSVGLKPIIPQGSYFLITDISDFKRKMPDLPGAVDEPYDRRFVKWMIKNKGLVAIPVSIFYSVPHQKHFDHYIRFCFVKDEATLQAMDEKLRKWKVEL
UniProt Q9NUP9: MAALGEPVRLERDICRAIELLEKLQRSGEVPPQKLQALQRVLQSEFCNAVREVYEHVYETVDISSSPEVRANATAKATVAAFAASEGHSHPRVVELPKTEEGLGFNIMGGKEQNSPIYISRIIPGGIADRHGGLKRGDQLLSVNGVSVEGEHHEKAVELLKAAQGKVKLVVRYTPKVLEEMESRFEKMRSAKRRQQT
UniProt O43813, whole entry, looked up: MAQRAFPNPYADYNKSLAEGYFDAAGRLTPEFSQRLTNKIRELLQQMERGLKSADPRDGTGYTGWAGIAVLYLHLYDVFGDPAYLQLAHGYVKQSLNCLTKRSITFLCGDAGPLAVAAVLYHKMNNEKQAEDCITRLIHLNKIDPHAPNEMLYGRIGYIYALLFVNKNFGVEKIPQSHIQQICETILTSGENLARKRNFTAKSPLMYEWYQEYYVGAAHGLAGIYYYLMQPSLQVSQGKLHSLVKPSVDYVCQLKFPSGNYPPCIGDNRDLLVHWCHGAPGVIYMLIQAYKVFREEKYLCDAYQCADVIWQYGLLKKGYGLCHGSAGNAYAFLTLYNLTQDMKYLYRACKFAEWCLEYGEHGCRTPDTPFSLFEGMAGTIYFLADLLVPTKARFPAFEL
UniProt Q9Y2Q5, whole entry, looked up: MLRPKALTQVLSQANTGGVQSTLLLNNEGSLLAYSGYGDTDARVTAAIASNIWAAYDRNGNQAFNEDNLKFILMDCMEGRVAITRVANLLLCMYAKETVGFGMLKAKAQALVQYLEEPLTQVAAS
UniProt Q9NT99: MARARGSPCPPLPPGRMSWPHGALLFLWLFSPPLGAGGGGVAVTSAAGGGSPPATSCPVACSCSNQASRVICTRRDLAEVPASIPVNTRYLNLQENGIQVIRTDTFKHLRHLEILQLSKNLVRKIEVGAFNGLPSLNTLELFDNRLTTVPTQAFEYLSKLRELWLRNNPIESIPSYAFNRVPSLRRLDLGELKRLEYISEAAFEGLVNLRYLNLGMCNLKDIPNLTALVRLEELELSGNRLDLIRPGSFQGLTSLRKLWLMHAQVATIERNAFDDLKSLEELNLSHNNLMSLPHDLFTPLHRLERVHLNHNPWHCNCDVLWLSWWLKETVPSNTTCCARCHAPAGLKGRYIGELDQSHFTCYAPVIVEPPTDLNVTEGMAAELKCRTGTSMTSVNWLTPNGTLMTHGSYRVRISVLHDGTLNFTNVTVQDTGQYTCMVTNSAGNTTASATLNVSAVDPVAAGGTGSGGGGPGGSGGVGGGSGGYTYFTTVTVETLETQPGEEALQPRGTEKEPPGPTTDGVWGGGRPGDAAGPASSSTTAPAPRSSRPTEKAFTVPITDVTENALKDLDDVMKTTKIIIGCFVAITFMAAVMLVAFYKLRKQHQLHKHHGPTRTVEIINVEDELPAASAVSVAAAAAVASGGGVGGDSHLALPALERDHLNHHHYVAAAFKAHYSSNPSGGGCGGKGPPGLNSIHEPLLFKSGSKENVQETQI
UniProt Q9NS86: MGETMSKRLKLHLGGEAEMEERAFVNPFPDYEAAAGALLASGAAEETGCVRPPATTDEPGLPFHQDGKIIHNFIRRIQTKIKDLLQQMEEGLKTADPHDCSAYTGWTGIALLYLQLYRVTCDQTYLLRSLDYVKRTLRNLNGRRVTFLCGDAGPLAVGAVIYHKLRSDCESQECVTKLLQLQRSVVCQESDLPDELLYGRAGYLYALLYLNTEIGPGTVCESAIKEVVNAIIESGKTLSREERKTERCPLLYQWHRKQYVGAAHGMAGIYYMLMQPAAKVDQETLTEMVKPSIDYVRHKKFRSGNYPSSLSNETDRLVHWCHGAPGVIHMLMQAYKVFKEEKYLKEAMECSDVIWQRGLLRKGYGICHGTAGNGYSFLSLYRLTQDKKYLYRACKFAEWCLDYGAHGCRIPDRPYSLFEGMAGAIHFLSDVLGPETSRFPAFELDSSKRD
UniProt Q9UHA4, whole entry, looked up: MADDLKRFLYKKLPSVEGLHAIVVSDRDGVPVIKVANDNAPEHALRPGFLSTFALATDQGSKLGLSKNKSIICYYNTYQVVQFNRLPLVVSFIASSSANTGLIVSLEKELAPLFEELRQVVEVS
UniProt Q6YP21: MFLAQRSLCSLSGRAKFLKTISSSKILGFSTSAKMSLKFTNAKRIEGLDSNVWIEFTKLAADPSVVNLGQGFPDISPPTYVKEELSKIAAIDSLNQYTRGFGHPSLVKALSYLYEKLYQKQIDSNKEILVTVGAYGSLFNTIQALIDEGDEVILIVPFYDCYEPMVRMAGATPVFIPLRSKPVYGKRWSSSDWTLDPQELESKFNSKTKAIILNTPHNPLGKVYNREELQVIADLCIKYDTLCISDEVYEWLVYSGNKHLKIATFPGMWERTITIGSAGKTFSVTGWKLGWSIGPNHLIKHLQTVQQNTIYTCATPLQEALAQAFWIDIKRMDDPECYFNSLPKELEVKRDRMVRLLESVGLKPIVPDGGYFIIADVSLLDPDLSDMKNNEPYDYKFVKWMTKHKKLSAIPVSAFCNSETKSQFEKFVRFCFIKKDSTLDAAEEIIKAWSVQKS
UniProt P25791: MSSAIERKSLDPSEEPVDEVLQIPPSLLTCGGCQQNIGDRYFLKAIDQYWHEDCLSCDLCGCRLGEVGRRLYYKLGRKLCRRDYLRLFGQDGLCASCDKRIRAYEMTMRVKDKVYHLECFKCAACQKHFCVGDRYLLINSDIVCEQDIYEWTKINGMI
UniProt Q92539: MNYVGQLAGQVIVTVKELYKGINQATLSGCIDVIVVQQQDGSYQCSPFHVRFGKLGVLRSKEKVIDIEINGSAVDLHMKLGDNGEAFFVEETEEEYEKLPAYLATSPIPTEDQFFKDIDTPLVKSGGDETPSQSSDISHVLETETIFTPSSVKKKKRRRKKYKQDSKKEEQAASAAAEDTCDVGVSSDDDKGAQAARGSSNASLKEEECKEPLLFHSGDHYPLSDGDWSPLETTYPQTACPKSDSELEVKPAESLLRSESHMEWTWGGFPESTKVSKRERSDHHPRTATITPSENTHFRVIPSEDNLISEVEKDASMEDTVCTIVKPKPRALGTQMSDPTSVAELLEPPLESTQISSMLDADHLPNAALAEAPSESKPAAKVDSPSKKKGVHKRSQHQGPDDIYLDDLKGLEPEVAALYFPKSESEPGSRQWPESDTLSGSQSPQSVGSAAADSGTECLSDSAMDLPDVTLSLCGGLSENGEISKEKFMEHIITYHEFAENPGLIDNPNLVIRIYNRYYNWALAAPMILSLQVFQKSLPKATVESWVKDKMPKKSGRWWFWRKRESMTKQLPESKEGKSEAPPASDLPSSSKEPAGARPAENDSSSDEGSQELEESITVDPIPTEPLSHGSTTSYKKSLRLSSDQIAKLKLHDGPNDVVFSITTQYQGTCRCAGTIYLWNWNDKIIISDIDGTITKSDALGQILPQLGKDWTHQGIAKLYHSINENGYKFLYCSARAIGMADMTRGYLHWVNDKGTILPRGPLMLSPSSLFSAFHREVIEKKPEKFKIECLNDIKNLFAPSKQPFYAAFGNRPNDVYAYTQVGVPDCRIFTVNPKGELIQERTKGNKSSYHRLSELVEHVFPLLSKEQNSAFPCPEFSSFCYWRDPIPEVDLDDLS
UniProt Q8NC56: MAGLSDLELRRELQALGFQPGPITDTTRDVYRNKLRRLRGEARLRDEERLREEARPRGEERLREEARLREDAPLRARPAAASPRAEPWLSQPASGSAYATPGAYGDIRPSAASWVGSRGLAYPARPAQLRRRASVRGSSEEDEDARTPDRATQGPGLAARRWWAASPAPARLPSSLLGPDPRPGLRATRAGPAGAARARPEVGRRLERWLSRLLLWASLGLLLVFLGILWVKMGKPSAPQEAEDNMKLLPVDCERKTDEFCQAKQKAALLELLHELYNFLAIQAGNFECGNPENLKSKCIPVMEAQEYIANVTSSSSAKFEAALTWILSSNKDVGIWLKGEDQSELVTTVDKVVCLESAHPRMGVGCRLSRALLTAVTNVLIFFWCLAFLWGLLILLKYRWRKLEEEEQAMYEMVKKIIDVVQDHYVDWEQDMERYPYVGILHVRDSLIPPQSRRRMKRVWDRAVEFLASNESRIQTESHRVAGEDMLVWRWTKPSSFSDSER
UniProt P13796: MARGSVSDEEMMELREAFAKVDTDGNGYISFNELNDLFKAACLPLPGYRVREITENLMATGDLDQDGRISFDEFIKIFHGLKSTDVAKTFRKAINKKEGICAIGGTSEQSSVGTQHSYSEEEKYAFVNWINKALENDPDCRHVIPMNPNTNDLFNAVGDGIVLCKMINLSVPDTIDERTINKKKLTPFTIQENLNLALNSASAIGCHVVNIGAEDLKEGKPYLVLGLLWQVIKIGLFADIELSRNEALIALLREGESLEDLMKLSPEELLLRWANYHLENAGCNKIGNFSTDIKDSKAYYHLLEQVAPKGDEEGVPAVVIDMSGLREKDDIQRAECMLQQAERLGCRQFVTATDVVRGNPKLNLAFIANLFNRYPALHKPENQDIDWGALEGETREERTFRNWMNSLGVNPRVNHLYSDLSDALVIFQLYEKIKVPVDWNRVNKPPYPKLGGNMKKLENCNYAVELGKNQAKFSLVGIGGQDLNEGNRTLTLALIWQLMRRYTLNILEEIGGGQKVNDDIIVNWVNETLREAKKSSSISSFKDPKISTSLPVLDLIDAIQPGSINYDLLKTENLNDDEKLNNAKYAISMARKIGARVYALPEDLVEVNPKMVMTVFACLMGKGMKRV

Columns and labels:
Assay in all cases: log2 fold change, soluble protein after heating vs DMSO (PISA); higher = thermal stabilisation; K562 cells, 10 uM, 30 min; active = over 0.2 and 3.5 SD of the protein, either way, in both replicates (recomputed)
bafetinib = compound: Cc1ccc(NC(=O)c2ccc(CN3CC[C@H](N(C)C)C3)c(C(F)(F)F)c2)cc1Nc1nccc(-c2cncnc2)n1 [bafetinib]
In short: (§1)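 Thermal stability values are relative to control samples and come from duplicates. They are expressed as log2 fold changes. For measurement, K562 cells (2×10^6 cells/mL) received 10 μM compound for 30 min, and aliquots were heated for 3 min over 48°C-58°C, pooled, and extracted at 4°C in PBS with 0.5% NP-40. Soluble protein, the supernatant after 21,000xg for 90 min, was quantified by TMTpro 16plex LC-MS/MS with equalised channel sums.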

[1] = compound: Cc1cccc(CC(=O)N2CCc3c2ccc(-c2cn(C)c4ncnc(N)c24)c3F)n1
In short: as §1

nilotinib = compound: Cc1cn(-c2cc(NC(=O)c3ccc(C)c(Nc4nccc(-c5cccnc5)n4)c3)cc(C(F)(F)F)c2)cn1 [nilotinib]
In short: as §1

[2] = compound: Cc1nc(Nc2n[nH]c3c2CN(C(=O)N[C@H](CN(C)C)c2ccccc2)C3(C)C)c2sccc2n1
In short: as §1

dasatinib = compound: Cc1nc(Nc2ncc(C(=O)Nc3c(C)cccc3Cl)s2)cc(N2CCN(CCO)CC2)n1 [dasatinib]
In short: as §1

[3] = compound: Cc1ncc(-c2ccnc(Nc3ccc(S(C)(=O)=O)cc3)n2)n1C(C)C
In short: as §1

[4] = compound: Cn1cc(-c2ccc3c(c2)CCN3C(=O)Cc2cccc(C(F)(F)F)c2)c2c(N)ncnc21
In short: as §1

[5] = compound: Cn1cc(-c2ccc3nnc(C(F)(F)c4ccc5ncccc5c4)n3n2)cn1
In short: as §1

tipifarnib = compound: Cn1cncc1[C@@](N)(c1ccc(Cl)cc1)c1ccc2c(c1)c(-c1cccc(Cl)c1)cc(=O)n2C [tipifarnib]
In short: as §1

mubritinib = compound: FC(F)(F)c1ccc(/C=C/c2nc(COc3ccc(CCCCn4ccnn4)cc3)co2)cc1 [mubritinib]
In short: as §1

Measured: log2 fold change

LRPAP1 (UniProt P30533)
inactive: bafetinib -0.044 | [1] -0.054 | nilotinib 0.035 | [2] -0.029 | dasatinib 0.014 | [3] -0.008 | [4] -0.032 | [5] -0.041 | tipifarnib 0.052 | mubritinib -0.019

LIMS1 (UniProt P48059)
inactive: bafetinib 0.007

LMF2 (UniProt Q9BU23)
inactive: bafetinib -0.068 | [1] 0.024 | nilotinib 0.047 | [2] -0.014 | dasatinib 0.033 | [3] 0.026 | [4] 0.021 | [5] 0.022 | tipifarnib 0.019 | mubritinib 0.052

LAMP1 (UniProt P11279)
inactive: bafetinib -0.031 | [1] 0.007 | nilotinib -0.019 | [2] 0.023 | dasatinib 0.036 | [3] -0.018 | [4] -0.011 | [5] -0.036 | tipifarnib 0.027 | mubritinib 0

LDB1 (UniProt Q86U70)
inactive: bafetinib -0.02 | [1] -0.063 | nilotinib 0.032 | [2] 0.016 | dasatinib 0.026 | [3] -0.001 | [4] -0.026 | [5] -0.007 | tipifarnib 0.056 | mubritinib 0.037

LARP7 isoform 3 (UniProt Q4G0J3)
inactive: bafetinib -0.045 | [1] 0.041 | nilotinib 0.01 | dasatinib -0.063 | [3] -0.249 | [4] 0.021 | [5] 0.029 | tipifarnib 0.021 | mubritinib -0.05
active: [2] -0.298

Quoted at random: 2 entries already listed.
LMF2 (UniProt Q9BU23)
inactive: bafetinib -0.068 | [1] 0.024 | nilotinib 0.047 | [2] -0.014 | dasatinib 0.033 | [3] 0.026 | [4] 0.021 | [5] 0.022 | tipifarnib 0.019 | mubritinib 0.052

LIMS1 (UniProt P48059)
inactive: bafetinib 0.007

Continuation.

KTI12 (UniProt Q96EK9)
inactive: bafetinib 0.06 | [1] 0.036 | nilotinib 0.083 | [2] -0.002 | dasatinib -0.056 | [3] -0.007 | [4] 0.038 | [5] 0.034 | tipifarnib -0.048 | mubritinib 0.039

LONP1 (UniProt P36776)
inactive: bafetinib -0.002 | [1] 0 | nilotinib 0.011 | [2] 0.019 | dasatinib 0.029 | [3] 0.001 | [4] 0.006 | [5] 0.014 | tipifarnib 0.028 | mubritinib -0.006

KYAT1 (UniProt Q16773)
inactive: bafetinib -0.046 | [1] -0.043 | nilotinib 0.002 | [2] 0.035 | dasatinib -0.021 | [3] 0.038 | [4] -0.023 | [5] 0.009 | tipifarnib -0.009 | mubritinib 0.044

LIN7C (UniProt Q9NUP9)
inactive: bafetinib -0.059 | [1] -0.001 | nilotinib 0.048 | [2] -0.039 | dasatinib -0.01 | [3] -0.024 | [4] -0.012 | [5] -0.042 | tipifarnib 0.061 | mubritinib 0.099

LIAS (UniProt O43766)
inactive: bafetinib -0.034 | [1] -0.079 | nilotinib 0.038 | [2] 0.003 | dasatinib 0.028 | [3] -0.059 | [4] -0.017 | [5] 0.059 | tipifarnib 0.098 | mubritinib 0.002

LANCL1 (UniProt O43813)
inactive: bafetinib -0.018 | [1] -0.009 | nilotinib 0.004 | [2] 0.013 | dasatinib 0.017 | [3] -0.001 | [4] 0.014 | [5] 0.003 | tipifarnib -0.016 | mubritinib 0.014

LIMA1 isoform 4 (UniProt Q9UHB6)
inactive: bafetinib -0.115 | [1] 0.019 | nilotinib -0.136 | [2] -0.112 | dasatinib 0.179 | [3] 0.052 | [4] -0.154 | [5] -0.071 | tipifarnib 0.088 | mubritinib 0.019

LAMTOR2 (UniProt Q9Y2Q5)
inactive: bafetinib -0.102 | [1] 0.045 | nilotinib 0.014 | [2] -0.066 | dasatinib 0.048 | [3] -0.124 | [4] -0.046 | [5] 0.121 | tipifarnib 0.119 | mubritinib 0.072

LRRC4B (UniProt Q9NT99)
inactive: bafetinib 0.093 | [1] -0.067 | nilotinib -0.161 | [2] 0.107 | dasatinib -0.028 | [3] 0.081 | [4] 0.008 | [5] 0.21 | tipifarnib 0.091

LEPR (UniProt P48357)
inactive: bafetinib -0.06 | [1] -0.011 | nilotinib 0.1 | [2] 0.019 | dasatinib 0.016 | [3] -0.001 | [4] -0.022 | [5] -0.028 | tipifarnib 0.043 | mubritinib 0.042

LANCL2 (UniProt Q9NS86)
inactive: bafetinib -0.055 | [1] -0.014 | nilotinib -0.007 | [2] 0.03 | dasatinib 0.041 | [3] 0.019 | [4] 0.018 | [5] -0.026 | tipifarnib 0.063 | mubritinib 0.037

LRPPRC (UniProt P42704)
inactive: bafetinib -0.053 | [1] 0.117 | nilotinib -0.14 | [2] -0.721 | dasatinib -0.732 | [3] 0.016 | [4] 0.236 | [5] 0.24 | tipifarnib -0.656 | mubritinib -0.161

LAP3 (UniProt P28838)
inactive: bafetinib -0.015 | [1] -0.01 | nilotinib -0.01 | [2] 0.04 | dasatinib -0.007 | [3] 0.022 | [4] 0.026 | [5] -0.004 | tipifarnib -0.034 | mubritinib 0.025

LAMTOR3 (UniProt Q9UHA4)
inactive: bafetinib -0.107 | [1] 0.07 | nilotinib -0.108 | [2] -0.017 | dasatinib 0.017 | [3] -0.174 | [4] 0.007 | [5] 0.08 | tipifarnib 0.042 | mubritinib 0.063

KYAT3 (UniProt Q6YP21)
inactive: bafetinib -0.028 | [1] -0.027 | nilotinib -0.026 | [2] 0.016 | dasatinib 0.045 | [3] -0.013 | [4] -0.006 | [5] 0.042 | tipifarnib -0.014 | mubritinib 0.016

KTN1 (UniProt Q86UP2)
inactive: bafetinib 0.042 | [1] 0.013 | nilotinib -0.117 | [2] 0.055 | dasatinib -0.013 | [3] 0.063 | [4] -0.081 | [5] -0.03 | tipifarnib -0.064 | mubritinib -0.032

KYNU (UniProt Q16719)
inactive: bafetinib -0.091 | [1] 0.064 | nilotinib 0.026 | [2] 0.009 | dasatinib -0.015 | [3] 0.008 | [4] -0.046 | [5] -0.005 | tipifarnib -0.008 | mubritinib 0.017

LARP4B (UniProt Q92615)
inactive: bafetinib 0.022 | [1] -0.025 | nilotinib -0.055 | [2] -0.192 | dasatinib -0.072 | [3] -0.092 | [4] -0.052 | [5] -0.031 | tipifarnib -0.008 | mubritinib -0.038

LNPEP (UniProt Q9UIQ6)
inactive: bafetinib -0.056 | [1] -0.007 | nilotinib 0.017 | [2] 0.026 | dasatinib 0.033 | [3] -0.024 | [4] 0.014 | [5] -0.007 | tipifarnib 0.008 | mubritinib 0.035

LMO2 isoform 3 (UniProt P25791)
inactive: bafetinib 0.035 | [1] 0.039 | nilotinib -0.051 | [2] 0.06 | dasatinib -0.032 | [3] -0.005 | [4] 0.031 | [5] -0.047 | tipifarnib -0.057 | mubritinib 0.033

LPIN1 isoform 7 (UniProt Q14693)
inactive: bafetinib -0.076 | [1] 0.051 | nilotinib -0.038 | [2] 0.046 | dasatinib -0.016 | [3] -0.079 | [4] -0.025 | [5] -0.058 | tipifarnib -0.019 | mubritinib 0.095

LPIN2 (UniProt Q92539)
inactive: bafetinib -0.123 | [1] -0.034 | nilotinib -0.083 | [2] 0.05 | dasatinib -0.056 | [3] 0.02 | [4] 0.163 | [5] 0.004 | tipifarnib 0.061 | mubritinib 0.013

LEMD2 (UniProt Q8NC56)
inactive: bafetinib -0.036 | [1] -0.008 | nilotinib -0.035 | [2] -0.123 | dasatinib -0.079 | [3] 0.011 | [4] 0.089 | [5] 0.008 | tipifarnib -0.045 | mubritinib -0.021

LCP1 (UniProt P13796)
inactive: bafetinib -0.02 | [1] -0.001 | nilotinib 0.012 | [2] -0.014 | dasatinib 0.068 | [3] -0.008 | [4] 0.012 | [5] 0.009 | tipifarnib 0.04 | mubritinib 0.04
